Experimental findings from article PMC9718832, “An NKX-COUP-TFII morphogenetic code directs mucosal endothelial addressin expression” (Nature Communications, 2022) are described below.

By UniProt entry, the sequences of proteins in these tests, tags left out.
UniProt P97334, whole entry: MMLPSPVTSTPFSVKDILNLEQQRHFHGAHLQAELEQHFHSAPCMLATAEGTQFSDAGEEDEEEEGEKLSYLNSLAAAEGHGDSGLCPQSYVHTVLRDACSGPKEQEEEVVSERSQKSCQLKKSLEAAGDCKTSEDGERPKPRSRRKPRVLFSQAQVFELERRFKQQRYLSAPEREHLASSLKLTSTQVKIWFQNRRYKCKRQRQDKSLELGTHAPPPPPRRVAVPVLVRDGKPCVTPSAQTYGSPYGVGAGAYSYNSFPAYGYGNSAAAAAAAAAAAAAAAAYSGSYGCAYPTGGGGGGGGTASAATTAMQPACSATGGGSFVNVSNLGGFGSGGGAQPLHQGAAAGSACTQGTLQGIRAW

Common to all, as to experiment: EMSA
Series [1] addresses T1, COUP-TFII (mouse) (UniProt P43135).
T1 sequence (looked up, limits assumed): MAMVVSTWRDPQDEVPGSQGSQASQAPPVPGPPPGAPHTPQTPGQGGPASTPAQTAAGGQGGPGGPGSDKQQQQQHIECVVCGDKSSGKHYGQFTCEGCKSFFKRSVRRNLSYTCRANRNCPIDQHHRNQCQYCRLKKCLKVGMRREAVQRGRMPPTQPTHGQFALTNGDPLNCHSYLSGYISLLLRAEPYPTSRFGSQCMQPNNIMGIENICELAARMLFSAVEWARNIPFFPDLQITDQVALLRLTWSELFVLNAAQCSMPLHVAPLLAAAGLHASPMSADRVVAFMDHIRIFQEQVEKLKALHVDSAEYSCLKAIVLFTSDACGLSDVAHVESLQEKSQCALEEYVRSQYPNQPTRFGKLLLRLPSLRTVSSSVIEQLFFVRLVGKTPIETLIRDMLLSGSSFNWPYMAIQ
To be noted: EMSA: 20 mM Tris pH 8.0, 10 mM KCl, 1 mM DTT, 20% glycerol, 12.5 ng poly dI/C, 6.25 pmol random ss oligo, BSA, 1-2 pmol probe, 4 C; recombinant protein; protein details: His, T7 (pET21A). (In EMSA bound probe runs differently from free probe, usually more slowly.)

Series [2] has as its target NKX2-3 (mouse) (UniProt P97334). To be noted: EMSA: 20 mM Tris pH 8.0, 10 mM KCl, 1 mM DTT, 20% glycerol, 12.5 ng poly dI/C, 6.25 pmol random ss oligo, BSA, 1-2 pmol probe, 4 C; recombinant protein; protein details: His, T7 (pET21A).
In series [3] the test system is NKX2-1 + COUP-TFII. The note with it: COUP-TFII tag not stated; EMSA: 20 mM Tris pH 8.0, 10 mM KCl, 1 mM DTT, 20% glycerol, 12.5 ng poly dI/C, 6.25 pmol random ss oligo, BSA, 1-2 pmol probe, 4 C; recombinant protein; protein details: pET21A tags (Cyagen),His, T7 (pET21A).

Construct, isoform or probe ends are uncertain for at least one entry. For some of these results: Negatives hold for the conditions tested. At least one verdict was read from the data and is not stated in words by the source. For some of these results: Where a protein sequence is shown, tags need not be part of it.

For the sequence “CCATGCACTTGAAAAAAAATGGTGACCCACCTCC (double strand) [Madcam1 CE_deltaC_A]”, the binding result in series [1] and in series [2] was “binds” throughout. Regarding “TTGCCAAATTATGTGAAAATTGGCAGACCAGCTG (double strand) [Nrp2_deltaC_A NCCE]”, the binding result in series [3] was “binds”. Consider “CCATGCACTTGAGGCACCATGGTGAGGCACCTCC (double strand) [Madcam1 CE m3 (both COUP-TFII sites mutated)]”, for which, in series [1], the binding result is listed as “no binding”.
